Results taken from PubChem BioAssay AID2685 (National Center for Advancing Translational Sciences (NCATS), 2010).
The other results are listed elsewhere or left out. Shown are side measurements of this screen, not its main read-out; they come without a call. Most of these compounds were active or inconclusive in the main read-out, so they are no random draw. Potencies come from curve fits of mixed quality, noted in brackets.

Experiment: qHTS Assay for Lipid Storage Modulators in Drosophila S3 Cells;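 for cell number change: cells counted by Cell Tracker Red CMTPX staining in the red channel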
Conditions: BODIPY lipid droplet fluorescence, 18-24 h; for cell number change: measured here: cell count max response, cells fed with added oleic acid
Outline: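 Drosophila S3 cells loaded with oleic acid (400 uM, as added) and compounds at several concentrations; lipid droplets imaged by 488-nm laser-scanning cytometry, 500–530 nm intensity and object ratio to cell channel. Percent activity normalized to 20 uM Triacsin C.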

[1] = measured here: lipid fluorescence (Fed channel) AC50, cells fed with added oleic acid
[2] = measured here: cell number channel AC50, cells fed with added oleic acid

SMILES	cell number change	AC50 [1]	AC50 [2]
Cc1cccn2c(=O)c(/C=N/O)c(Nc3ccccc3F)nc12	14.3%	6.51 µM [rising, single point]	–
C/C(=N\N1CCN(c2ccc(Cl)cc2)CC1)c1cccc([N+](=O)[O-])c1	17.1%	–	–
NS(=O)(=O)c1ccc(CCNC(=O)c2cnc(Cl)c(Cl)c2)cc1	4.58%	–	–
O=C(COc1ccc(-c2ccccc2)cc1)N1CCN(C(=O)c2cccs2)CC1	-17.6%	29.1 µM [falling, single point]	–
Oc1ccc(C[C@@H]2CNC(=S)N2CCCCC2CCCCC2)cc1	-21.5%	–	–
Cc1onc(-c2c(F)cccc2Cl)c1C(=O)OCC(=O)NCc1ccco1	-0.503%	29.1 µM [rising, single point]	–
Cc1occc1C(=O)N1CCN(c2ccc([N+](=O)[O-])cc2)CC1	32.4%	–	–
NC(=O)c1c(NC(=O)c2ccc(F)cc2)sc2c1CCC2	–	9.2 µM [falling, single point]	–
Cc1c(Nc2nc(C(F)(F)F)nc3ccccc23)c(=O)n(-c2ccccc2)n1C	29.2%	–	6.51 µM [falling, single point]
O=C(Nc1cc(Cl)ccc1N1CCOCC1)c1cc2ccccc2o1	16.7%	29.1 µM [rising, single point]	–
COc1ccc(CNC(=O)COC(=O)c2c[nH]c(=O)[nH]c2=O)cc1OC	-0.271%	29.1 µM [rising, single point]	–
Cc1ccc(-c2nn(-c3ccccc3)cc2CNCc2ccccc2)cc1	3.82%	–	–
O=C(C[n+]1ccc(Cc2ccccc2)cc1)Nc1ccccc1	-36%	–	3.66 µM [falling, full curve, poor fit]
O=C(CSc1nnc2ccc(-c3ccc(Br)cc3)nn12)NCC1CCCO1 (stereo not drawn)	–	2.31 µM [rising, single point]	–
CCOC(=O)N1CCN(c2c(NCCc3ccc(OC)c(OC)c3)c(=O)c2=O)CC1	–	3.26 µM [rising, partial curve]	6.51 µM [rising, single point]
CCCCNC(=S)Nc1ccc(OC)nc1	-26.1%	6.51 µM [rising, single point]	0.651 µM [falling, single point]
Cc1cccc(-n2nc(CC#N)c(C#N)c2N)c1	–	2.59 µM [rising, partial curve]	–
CCOc1ccc(OCCCCN(C)C)cc1	-12.4%	0.116 µM [falling, full curve]	–
CCCCCN(C(=O)NC(=O)Nc1cccc(C)c1C)S(C)(=O)=O	–	29.1 µM [rising, single point]	–
COc1ccc(NC(=O)c2oc3ccccc3c2NC(=O)C2CC2)cc1OC	-33.7%	6.51 µM [falling, single point]	32.6 µM [falling, single point]
CCOC(=O)N1CCN(C(=O)CN2C(=O)COc3ccc(C)cc32)CC1	–	0.13 µM [rising, full curve, poor fit]	0.184 µM [rising, partial curve, poor fit]

Part of the list above in order of number of heavy atoms, ascending:
SMILES	cell number change	AC50 [1]	AC50 [2]
Cc1cccc(-n2nc(CC#N)c(C#N)c2N)c1	–	2.59 µM [rising, partial curve]	–
NS(=O)(=O)c1ccc(CCNC(=O)c2cnc(Cl)c(Cl)c2)cc1	4.58%	–	–
C/C(=N\N1CCN(c2ccc(Cl)cc2)CC1)c1cccc([N+](=O)[O-])c1	17.1%	–	–
Cc1ccc(-c2nn(-c3ccccc3)cc2CNCc2ccccc2)cc1	3.82%	–	–

Next structures.

SMILES	cell number change	AC50 [1]	AC50 [2]
Cc1cnc(C(=O)OCC(=O)c2ccc(C)s2)cn1	23.2%	0.00461 µM [rising, full curve, poor fit]	–
COC(=O)c1ccccc1NC(=O)CSc1nnc(-c2cccnc2)n1N	1.92%	1 µM [rising, full curve]	–
CC1(C)Cc2c(sc(NC(=O)c3ccco3)c2C#N)C(C)(C)N1	-22.9%	29.1 µM [falling, single point]	–
O=C1NC(=Nc2ccc(Cl)cc2)SC1Cc1cccc(Cl)c1Cl (stereo not drawn)	-34.3%	16.4 µM [falling, single point]	20.6 µM [falling, single point]
O=C(Nc1ccc(F)cc1F)c1cc2ncc(Br)cn2n1	3.03%	29.1 µM [falling, single point]	–
CCCNc1nc(Nc2ccc(C)cc2)nc(N2CCCC2)n1	125%	–	29.1 µM [rising, single point]
CCCC1CCC(c2ccc(OCC)cc2)=CC1=O (stereo not drawn)	43.9%	–	18.4 µM [rising, single point]
COc1ccc(/C(N)=N/OC(=O)CN(C)S(=O)(=O)c2ccccc2)cc1	9.61%	23.1 µM [rising, partial curve, poor fit]	–
Cc1cc(C)cc(NC(=O)OCCN2CCN(Cc3ccccc3)CCC2=O)c1	2.05%	0.92 µM [rising, full curve]	–
C=CCNc1nc(NCC)nc(N2CCOCC2)n1	-9.17%	0.00461 µM [falling, full curve, poor fit]	–
CC1Oc2ccccc2C=C1/C=N/Nc1ccc(C(=O)O)cc1 (stereo not drawn)	–	–	0.58 µM [rising, single point]
CC(C)(C)[C@H]1C=C(C(N)=O)O[C@@H](OCc2ccc(CO)cc2)C1	-21.2%	18.4 µM [falling, single point]	–
COc1ccc(CN2CCC(C(=O)c3cccc(Cl)c3)CC2)cc1	20.8%	6.51 µM [rising, single point]	–
CCOc1cc(NC(=O)c2ccco2)c(OCC)cc1NC(=O)c1ccco1	8.97%	–	–
OC(Cn1cncn1)(c1ccccc1)c1ccccc1	18.4%	1.3 µM [rising, full curve]	–
COc1cc(C(=O)NC2CCN(CC(=O)Nc3cccc(C)c3C)CC2)cc(OC)c1OC	27.7%	29.1 µM [rising, single point]	–
O=C(c1ccc2c(c1)OCCO2)C1CCN(S(=O)(=O)c2cccc(F)c2)CC1	-9.39%	0.00411 µM [rising, full curve, poor fit]	–
CC(=O)c1sc(NC(=O)c2ccc(COc3ccccc3Cl)o2)nc1C	-18.9%	–	–
COc1cccc(NC(=O)CC2S/C(=N\S(=O)(=O)c3ccccc3)N(c3ccccc3)C2=O)c1 (stereo not drawn)	10.2%	8.2 µM [rising, partial curve]	–
Cn1cnc2cc(NC(=O)COc3ccccc3)ccc21	10.5%	2.51 µM [rising, full curve, poor fit]	–
